Values of other authors, collected in patent US8710032B2, “Inhibitors of the mevalonate pathway of Streptococcus pneumoniae” (Northwestern University, priority 2006, dated 2014).
For at least one compound, name, drawing or mass did not settle the structure.

Molecular target: T1, mammalian DPM decarboxylase (Homo sapiens, UniProt P53602)
T1 sequence (P53602 1-400): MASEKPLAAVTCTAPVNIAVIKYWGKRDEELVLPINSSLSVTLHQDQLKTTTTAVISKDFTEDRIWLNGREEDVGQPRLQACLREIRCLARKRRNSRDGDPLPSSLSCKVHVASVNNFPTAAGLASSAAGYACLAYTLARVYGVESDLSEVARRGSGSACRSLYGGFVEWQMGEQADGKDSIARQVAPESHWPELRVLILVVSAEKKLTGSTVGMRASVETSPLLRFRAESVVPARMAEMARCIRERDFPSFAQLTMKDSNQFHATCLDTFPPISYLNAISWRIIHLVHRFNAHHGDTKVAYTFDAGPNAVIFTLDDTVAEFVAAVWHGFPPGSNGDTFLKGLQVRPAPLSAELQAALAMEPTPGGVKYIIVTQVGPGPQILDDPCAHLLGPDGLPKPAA
Details: that of DPM; cited from earlier work

CCC(O)(CCOP(=O)(O)OP(=O)(O)O)CC(=O)O (stereo not shown) [compound 14]
kcat/km relative to DPM: about ⅙
